Measured values: PMC7261175, “A splice site-sensing conformational switch in U2AF2 is modulated by U2AF1 and its recurrent myelodysplasia-associated mutation” (Nucleic Acids Research, 2019)

What was measured:
[1] = tested on: U2AF1 S34F untagged + U2AF2; experiment: fluorescence anisotropy; details: Kd in figure only; Anisotropy: 150 mM NaCl, 25 mM HEPES pH 6.8, 0.5 mM TCEP, 3% glycerol, 20 uM ZnCl2, 0.2 U/ul SUPERase-In; recombinant protein; label: 5'-fluorescein
MBP tag = experiment: fluorescence anisotropy; details: Anisotropy: 150 mM NaCl, 25 mM HEPES pH 6.8, 0.5 mM TCEP, 3% glycerol, 20 uM ZnCl2, 0.2 U/ul SUPERase-In; recombinant protein; label: 5'-fluorescein

CUGUCCCUUUUUUUUCACAGCUCGCGGUUGAG [Fl-AdML]
binding result [1]: binds | binding result (MBP tag): no binding

Construct, isoform or probe ends are uncertain for at least one entry. For some assays here: A negative result means that nothing was seen under these conditions. For some assays here: At least one verdict rests on a figure or table, not on a statement of the authors.
